# Assay results reported in patent US7439256B2, “(Arylamidoaryl) cyanoguanidine compounds” (priority 2004, dated 2008).
# Protein sequences, listed by entry. Tags and fused reporters are not part of them. Residues count along the entry.
# UniProt P10721, 26-976: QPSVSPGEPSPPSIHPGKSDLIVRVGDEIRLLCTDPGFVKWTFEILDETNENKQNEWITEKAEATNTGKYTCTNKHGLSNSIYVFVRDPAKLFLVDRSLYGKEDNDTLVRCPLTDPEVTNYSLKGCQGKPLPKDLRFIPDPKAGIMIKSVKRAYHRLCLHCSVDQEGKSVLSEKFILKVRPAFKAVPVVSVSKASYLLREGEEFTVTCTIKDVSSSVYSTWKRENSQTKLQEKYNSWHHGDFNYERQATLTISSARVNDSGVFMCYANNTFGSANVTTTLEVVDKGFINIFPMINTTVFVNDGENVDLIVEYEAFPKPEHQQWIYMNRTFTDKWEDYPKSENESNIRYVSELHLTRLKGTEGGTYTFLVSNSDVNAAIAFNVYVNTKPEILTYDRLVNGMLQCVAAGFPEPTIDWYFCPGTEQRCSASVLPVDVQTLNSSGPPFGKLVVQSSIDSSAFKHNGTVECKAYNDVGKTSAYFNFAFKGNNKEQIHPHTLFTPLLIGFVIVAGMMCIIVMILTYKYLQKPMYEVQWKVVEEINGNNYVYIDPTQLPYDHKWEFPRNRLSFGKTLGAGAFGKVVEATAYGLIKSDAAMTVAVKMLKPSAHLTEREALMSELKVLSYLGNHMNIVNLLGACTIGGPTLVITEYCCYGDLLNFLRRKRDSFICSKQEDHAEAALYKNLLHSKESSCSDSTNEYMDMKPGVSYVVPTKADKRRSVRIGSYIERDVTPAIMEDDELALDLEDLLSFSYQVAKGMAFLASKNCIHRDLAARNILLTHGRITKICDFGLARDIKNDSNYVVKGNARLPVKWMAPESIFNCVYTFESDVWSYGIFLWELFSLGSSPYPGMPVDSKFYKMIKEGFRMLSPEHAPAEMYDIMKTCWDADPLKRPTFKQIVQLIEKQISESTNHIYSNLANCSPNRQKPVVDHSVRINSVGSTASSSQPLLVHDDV
# Some of these results come from one statement about several compounds together.
# Biological target: T1, wild-type c-Kit receptor protein endogenously expressed in H526 cells (Homo sapiens, UniProt P10721)
# T1 construct: wild-type c-Kit receptor protein that is endogenously expressed in H526 cells; host or cells: H526 human small cell lung cancer cells
# Assay: C-KIT H526 cell assay: cell-based ELISA for inhibition of SCF-stimulated c-Kit tyrosine phosphorylation in intact cells
# Details: 3 h pre-incubation, SCF stimulation 15 min, read-out: IC50 (concentration of compound that inhibits SCF-induced tyrosine phosphorylation of the c-Kit protein by 50%)
row,SMILES,IC50 [µM]
1,"CN(C)/C(=N/C#N)N1CCc2ccc(NC(=O)c3sccc3NCc3ccnc4ccccc34)cc21 [COMPOUND 3, N-{1-[(Cyanoimino)(dimethylamino)methyl]-2,3-dihydro-1H-indol-6-yl}-3-((quinolin-4-ylmethyl)amino)thiophene-2-carboxamide]",> 50
2,N#C/N=C(/Nc1ccc(NC(=O)c2sccc2NCc2ccnc3ccccc23)cc1)OCC(F)(F)F [COMPOUND 2],> 50
